Source: article PMC4256409, “Role of Phenylalanine and Valine^10 Residues in the Antimicrobial Activity and Cytotoxicity of Piscidin-1” (PLoS ONE, 2014)

How the values were obtained:
[1] = Tryptophan fluorescence with SUVs; settings: for Blue shift of tryptophan emission maximum (in parentheses): EYPC/EYPG (7∶3, w/w) SUVs versus Tris-HCl buffer; for Tryptophan emission maximum: EYPC/EYPG (7∶3, w/w) SUVs, 1 mM lipid, 5 µM peptide, pH 7.4
[2] = Tryptophan fluorescence with SUVs; settings: for Blue shift of tryptophan emission maximum (in parentheses): EYPC/CH (10∶1, w/w) SUVs versus Tris-HCl buffer; for Tryptophan emission maximum: EYPC/CH (10∶1, w/w) SUVs, 1 mM lipid, 5 µM peptide, pH 7.4

| Substance | Blue shift of tryptophan emission maximum (in parentheses) [1] | Tryptophan emission maximum [1] | Blue shift of tryptophan emission maximum (in parentheses) [2] | Tryptophan emission maximum [2] |
| --- | --- | --- | --- | --- |
| Melittin [reference compound] | −18 | 332 | −18 | 332 |
| WFHHIFRGIVHVGKTIHRLVTG [Pis-F1W, Pis-1 analog, Phe1 replaced with Trp] | −12 | 340 | −14 | 338 |
| FFHHIWRGIVHVGKTIHRLVTG [Pis-F6W, Pis-1 analog, Phe6 replaced with Trp] | −24 | 332 | −16 | 334 |
| FWHHIFRGIVHVGKTIHRLVTG [Pis-F2W, Pis-1 analog, Phe2 replaced with Trp] | −26 | 326 | −22 | 330 |
